Measurements reported in patent publication US8883173B2 (priority 2007, dated 2014).

Assay: general procedure: Fmoc solid-phase peptide synthesis; HMBA-AM resin; HATU/DIEA
Conditions: whole synthesis, based on the Fmoc-Ala-resin substitution

Substance “LipidC20-DPhe-NMeVal-Ile-Phe-Ala-OMe (L5P)” has an isolated yield of 60%.
